Experimental data as given in publication PMC5715026.
Where two headings read alike, the source gives them in different places. These are yes or no findings as the source states them, for the method shown. In cells and extracts the contact can be indirect. A yes stands for co-enrichment or nearness to the bait. Other partners may have been found. Where a sequence is shown, tags or fusion partners need not be part of it. Blank lines part the entries; values can stand above or below the molecule they belong to.

Sequences of proteins named here, by UniProt entry; tags and fusion partners are left off.
UniProt O70126: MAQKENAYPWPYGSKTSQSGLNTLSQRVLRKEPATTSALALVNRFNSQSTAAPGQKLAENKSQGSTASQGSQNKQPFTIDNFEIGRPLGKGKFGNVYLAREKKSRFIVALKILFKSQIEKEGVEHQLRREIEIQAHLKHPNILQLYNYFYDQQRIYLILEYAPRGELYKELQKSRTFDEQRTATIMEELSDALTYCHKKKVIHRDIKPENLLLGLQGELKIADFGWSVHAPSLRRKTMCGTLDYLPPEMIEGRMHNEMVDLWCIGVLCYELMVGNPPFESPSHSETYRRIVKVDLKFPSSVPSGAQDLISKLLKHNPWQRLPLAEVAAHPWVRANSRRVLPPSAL

Key:
[1] = molecular target: T1, FLAG-tagged IFT27 (stably expressed in IMCD cells) (UniProt Q9D0P8); assay: affinity purification with mass spectrometry; lysates (20 mg) of IMCD cells stably expressing FLAG-IFT27, synchronized in mitosis (RO-3306, 1 h release); Flag M2 agarose 3 h at 4 °C, FLAG peptide elution, LTQ-Orbitrap XL
T1 sequence: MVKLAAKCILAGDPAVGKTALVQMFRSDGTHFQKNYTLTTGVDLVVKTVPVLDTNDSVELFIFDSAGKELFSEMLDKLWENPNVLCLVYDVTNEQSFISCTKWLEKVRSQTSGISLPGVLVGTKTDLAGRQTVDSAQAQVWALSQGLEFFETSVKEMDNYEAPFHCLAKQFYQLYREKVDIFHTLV

[2] = molecular target: T1, FLAG-tagged IFT27 (stably expressed in IMCD cells); assay: as above; remark: listed apart in the source

binding [1]: binds
Molecule: Aurora B (endogenous, IMCD cells) (from UniProt O70126 1-345) (enzyme)

binding [2]: binds
B1: MgcRacGAP (endogenous, IMCD cells) (protein, UniProt Q9WVM1 1-628)
chain: MDTTMVNLWTLFEQLVRRMEIINEGNESIEFIQVVKDFEDFRKKYQRTNQELEKFKDLLLKAETGRSALDVKLKHARNQVDVEIKRRQRAEAECAKLEQQIQLIRDILMCDTSGSIQLSEEQKSALAFLNRGQASSGHAGNNRLSTIDESGSILSDISFDKTDESLDWDSSLVKNFKMKKREKRRSNSRQFIDGPPGPVKKTCSIGSTVDQANESIVAKTTVTVPSDGGPIEAVSTIETLPSWTRSRGKSGPLQPVNSDSALNSRPLEPRTDTDNLGTPQNTGGMRLHDFVSKTVIKPESCVPCGKRIKFGKLSLKCRDCRLVSHPECRDRCPLPCIPPLVGTPVKIGEGMLADFVSQASPMIPAIVVSCVNEIEQRGLTEAGLYRISGCDRTVKELKEKFLKVKTVPLLSKVDDIHVICSLLKDFLRNLKEPLLTFWLSKAFMEAAEITDEDNSTAAMYQAVSELPQANRDTLAFLMIHLQRVSQSPDTKMDIANLAKVFGPTIVAHTVPNPDPVTMFQDIKRQLKVVERLLSLPLEYWNQFMMVDQENIDSQRGNGNSTPRTPDVKVSLLGPVTTPEFQLVKTPLSSSLSQRLYNLSKSTPRFGNKSKSATNLGQQGKFFPAPYLK

binding [2]: binds
B2: MKLP1 (endogenous, IMCD cells) (protein, UniProt E9Q5G3 1-953)
chain: MKSAKAKTVRKPVIKKGSQTNLKDPVGVYCRVRPLSFPDQECCVEVINSTTLQLHTPEGYRLNRNGDYKETQYSFKRVFGTHTTQKELFDVVANPLVDDLIHGKNGLLFTYGVTGSGKTYTMTGSPGSGGLLPRCLNMIFNSIGSFQAKRYVFKSNDRNSMEIQCEVDALLERQKREALPIPKTPSSKRQADPEFADMINVQEFCKAEEVDEDSVYGVFVSYIEIYNNYIYDLLEEVQFDPIKPKLPQSKTLREDKNHNMYVAGCTEVEVKSTEEAFEVFWRGQKKRRIANTHLNRESSRSHSVFSIKLVQAPLDADGDNVLQEKEQITISQLSLVDLAGSERTNRTKAEGNRLREAGNINQSLMTLRTCMEVLRENQTYGTNKMVPYRDSKLTHLFKNYFDGEGKVRMIVCVNPKAEDYEESLQVMRFAEVTQEVEVARPVDKVICGLTPGRRYRNLPRGGPVGDEPLVPEVILQSFPPLPPCKLLDINDEETLPKLADTLEKRHHLRQLMTEDLNKKCLAFKALLKEFDNSLSNKENYVQEKLNEREKVISGQKLEIERLEKKNKTLEYKIEILEKTTTIYEEDKRNLQQELESQNQKLQRQFSDKRRLEARLQGMVTETSMKWQKECERRVAATQLEMQNKLWVKDEKLKQLKAIVTEPKPEKPERPSRERDREKIIPRSVSPSPLPLSSNNIAQISNGQQLMSQPQLHRRSNSCSSISVASCISEWEQKLSPFSTPVNVTSLARHRQQEPGQSKTCIVSDRRRGMCWTEGREMVPTFSSEIGVEEDHCRRNTPIPVRHRRSRSAGSRWVDHKPASNVQTETVMQPHVPHAITVSVANEKALAKCEKYMLTHQELASDGEIQTKVIKGDVYKTRGGGQSVQFTDIETLKQELPTGSRKRRSSTLAPAQPDGTESEWTDVETRCSVAVEMRAGSQLGPGYQHHAQPKRKKP
